Test results as given in patent US9340600B2 (Indiana University Research and Technology Corporation, priority 2012, dated 2016).

Test: general procedure: Boc solid-phase peptide synthesis; MBHA resin, 100-180 mesh, 1% DVB, loading 0.7-1.0 mmol/g (Midwest Biotech); DEPBT/DIEA single couplings; DIC for acylation
Conditions: Analytical HPLC, UV 214/220 nm

Substance | final HPLC purity (lipidation step) [%+] | final HPLC purity (whole synthesis, scale of the general procedure 0.2 mmole) [%+]
Glucagon Aib2 E16 A18 L27 D29 Cex Cys40(S-2 palmityl)amide | 90 | –
dPEG-gammaGlu-C16 peptide (mass 5010.6) | – | 90
